Drawing on PubChem BioAssay AID493014 (National Center for Advancing Translational Sciences (NCATS), 2011), this text covers AC50 for 63 compounds.

Each structure is given as a SMILES string. The list shows a part of the results. The main result of the screen is listed elsewhere. These columns were measured beside it and carry no call. Most of these compounds were active or inconclusive in the main read-out, so they are no random draw. Words in brackets tell the shape of the fitted curve; partial curves, single points and poor fits give uncertain potencies.

A short description of the experiment: qHTS Assay to Find Inhibitors of Chronic Active B-Cell Receptor Signaling. Particulars: ABC-DLBCL IkBa-CBG/CBR reporter, luminescence ratio (green luciferase fused to IkBa over red control in TMD8 lymphoma cells), 4 h. A digest of the protocol: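 Compounds up to 46 uM were incubated four hours with TMD8 cells whose green CBG68 luciferase is fused to IkappaBalpha; red CBR luminescence normalised the signal, and concentration-effect curves were fitted to fusion, red and ratio data.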
In general terms: Quantitative high-throughput screening tests each substance at several concentrations.

[1] abbreviates: measured here: CBR red luminescence, cell number.
Where [2] appears, read: measured here: IkBa-CBG green luminescence.

With `Cc1cc(C)c(NC(=S)NC(NC(=O)c2ccccc2)C(Cl)(Cl)Cl)c(C)c1` (configuration not stated), the AC50 is 18.4 µM [falling, partial curve] under setting [1] and 32.6 µM [rising, partial curve, poor fit] under setting [2].

As to `CCOC(=O)Cn1ccc(NC(=O)c2ccc3c(c2)OCO3)n1`, the AC50 under setting [1] was 10 µM [falling, partial curve].

Take `Cc1ccc(C)c(NC(=O)C(=O)NCCc2c[nH]c3ccccc23)c1`: the AC50 under setting [1] is 7.94 µM [falling, partial curve].

Turning to `O=C(OCC(O)CO)c1ccccc1Nc1ccnc2cc(Cl)ccc12` (configuration not stated), the AC50 under setting [1] is 29.1 µM [falling, single point] and the AC50 under setting [2] is 9.2 µM [falling, partial curve].

Regarding `Cn1cc(Cl)c(C(=O)N/N=C/c2ccc3c4c(cccc24)CC3)n1`, the concentration at half-maximal activity (AC50) under setting [1] was 7.08 µM [falling, partial curve].

In the case of `Cc1cc(C)cc(N(CC(=O)Nc2ccc(C)cc2Cl)S(=O)(=O)c2c(C)[nH]c(=O)[nH]c2=O)c1`, the AC50 under setting [1] was 35.5 µM [falling, single point].

Turning to `Cc1nnc(SCC(=O)Nc2cccc([N+](=O)[O-])c2)n1CC1CCCO1` (configuration not stated), the AC50 under setting [1] was 5.01 µM [falling, single point].

Regarding `Cc1cccc(Cc2nnc(CCC(=O)N(C)Cc3ccncc3C)o2)c1`, under setting [1], the AC50 is 11.2 µM [falling, partial curve, poor fit].

As to `Nc1nc(COc2ccc(F)cc2)nc(N2CCCCC2)n1`, the AC50 under setting [1] is 3.55 µM [rising, single point].

On to `COCCn1c(SCC(=O)N2CCCc3ccccc32)nc2c(c1=O)SC(C)C2` (configuration not stated), for which the AC50 under setting [1] was 10.3 µM [falling, partial curve, poor fit].

Regarding `C/C(=C\c1ccccc1)C(=O)Nc1ccc(Cl)cn1`, the AC50 under setting [1] was 10 µM [falling, partial curve].

Take `CCOc1ccc2c(C)nc(NC3=NC(C)(C)C=C(C)N3)nc2c1`: the AC50 under setting [1] is 2.06 µM [rising, partial curve, poor fit].

Turning to `CCc1nnc(NC(=O)c2ccc(S(=O)(=O)N3CCCCC3)cc2)s1`, under setting [1], the AC50 was 3.55 µM [rising, partial curve].

With `CN(Cc1nc(-c2ccccn2)no1)S(=O)(=O)c1ccc(Br)cc1`, the AC50 under setting [1] was 1.46 µM [rising, partial curve, poor fit].

For `CCN(CC)c1ccc(/C=N/Nc2nc3ccccc3[nH]2)c(O)c1`, the AC50 under setting [1] was 23.1 µM [falling, single point].

In the case of `COC(=O)C(OC(=O)c1ccc(OC)cc1)C(=O)OC`, under setting [1], the AC50 was 32.6 µM [rising, single point].

Take `CC(=O)c1cnc2cc(-c3ccccc3)nn2c1C`: under setting [1], the AC50 was 2.91 µM [rising, partial curve, poor fit].

Regarding `c1ccc(-n2nnnc2-c2cnc(-c3ccncc3)nc2-c2cccs2)cc1`, the AC50 under setting [1] was 29.1 µM [falling, partial curve, poor fit].

In the case of `CSCc1c(C(=O)Nc2ccc3c(c2)OCO3)oc2ccccc12`, the AC50 under setting [1] was 7.08 µM [falling, partial curve].

In the case of `O=C(CCSc1ccccc1)N1CCOCC1`, the AC50 under setting [1] is 4.11 µM [rising, full curve].

In the case of `CCCCNC(=O)c1ccc2c(c1)ncn2C1CCCC1`, the AC50 under setting [1] was 32.6 µM [falling, single point].

For the compound `CCN1C(=O)C(CC(=O)Nc2ccc(F)cc2)N(CCc2ccc(OC)cc2)C1=S` (configuration not stated), the AC50 under setting [1] was 31.6 µM [falling, single point].

Regarding `Fc1cccc(NC(=S)NNc2ccccc2)c1`, the AC50 under setting [2] was 22.4 µM [falling, single point].

With `COc1ccccc1NC(=O)C(C)N(C)Cc1ccc(Cl)s1` (configuration not stated), the AC50 under setting [1] is 6.31 µM [rising, full curve, poor fit].

As to `CCOc1ccc(S(=O)(=O)Nc2nc3ccccc3nc2Nc2ccc(N3CCOCC3)cc2)cc1`, the AC50 under setting [1] is 1.46 µM [falling, full curve].

`COC(=O)C1CCN(c2nc3ccccc3nc2C(C#N)C(=O)OCC(C)C)CC1` (configuration not stated): the AC50 under setting [1] was 2.51 µM [rising, full curve].

On to `O=S(=O)(c1ccccc1)c1ccc(N2CCCCCC2)cc1`, for which the concentration at half-maximal activity (AC50) under setting [1] was 20 µM [rising, single point].

In the case of `Cc1nc2c(-c3ccccc3)c(C)[nH]n2c(=O)c1Cl`, under setting [1], the AC50 is 11.6 µM [falling, partial curve].

For `CCN(CC)c1ccc2cc(-c3nc(-c4ccccc4)no3)c(=O)oc2c1`, the AC50 under setting [1] is 0.251 µM [falling, full curve, poor fit].

Consider `CCOC(=O)C1CCCN(C(=O)COc2ccccc2O)C1` (configuration not stated), for which the AC50 under setting [1] was 4.61 µM [rising, partial curve, poor fit].

On to `COc1ccc(NC(=O)/C=C/c2ccc(OC)c(OC)c2)cn1`, for which, under setting [1], the concentration at half-maximal activity (AC50) was 8.91 µM [falling, partial curve, poor fit].

As to `CCCCNc1ncnc2c1cnn2-c1ccc(Cl)cc1`, the concentration at half-maximal activity (AC50) under setting [1] is 0.231 µM [rising, full curve, poor fit].

For `O=c1c2cc(Cl)ccc2nc(-c2ccc([N+](=O)[O-])cc2)n1O`, the AC50 under setting [1] is 8.91 µM [falling, partial curve].

Turning to `Cc1ccc(N(CC(=O)Nc2ccc3c(c2)OCCO3)S(=O)(=O)c2c(C)n[nH]c2C)cc1`, under setting [1], the AC50 was 2.24 µM [falling, partial curve, poor fit].

`CCN1CCN(c2ccc(S(=O)(=O)N3CCCCC3)cc2NC(=O)Cc2ccccc2)CC1`: under setting [1], the AC50 is 6.51 µM [rising, partial curve, poor fit].

Regarding `O=[N+]([O-])c1ccc(N/N=C/c2cn(-c3ccccc3)nc2-c2ccccc2)cc1`, the AC50 under setting [1] is 0.501 µM [falling, partial curve, poor fit].

As for `Cc1ccc(NC(=O)CCCN2C(=O)/C(=C/C=C/c3ccccc3)SC2=S)cc1`, under setting [1], the AC50 is 3.66 µM [falling, full curve].

For the compound `CC(NC(=O)COC(=O)C1=NN(c2ccccc2)C(=O)CC1)c1ccccc1` (configuration not stated), the AC50 under setting [1] was 0.0366 µM [rising, full curve, poor fit].

For the compound `OCCN1CCN(CC(O)COc2ccc(-c3ccccc3)cc2)CC1` (configuration not stated), under setting [1], the AC50 is 29.1 µM [rising, single point].

`C=C1C(=O)[C@@]23[C@H](O)C[C@@H]4C(C)(C)CC[C@H](O)[C@]4(C)[C@@H]2C[C@H](O)[C@@H]1[C@H]3O`: the AC50 was 5.17 µM [falling, full curve] under setting [1] and 23.1 µM [rising, single point] under setting [2].

Consider `O=C(NCCCN1CCN(c2cccc(Cl)c2)CC1)c1ccc(N2CCCC2=O)cc1`, for which the AC50 under setting [1] is 35.5 µM [falling, single point].

As to `CSc1cccc(NC(=O)c2[nH]c(C)c(C(C)=O)c2C)c1`, the AC50 under setting [1] is 2.51 µM [rising, full curve, poor fit].

In the case of `NC(=O)C1(N2CCCCC2)CCN(Cc2ccc(F)cc2)CC1`, under setting [1], the AC50 was 25.9 µM [falling, single point].

For `O=c1oc(-c2ccccc2)cc(Cl)c1Cl`, the concentration at half-maximal activity (AC50) under setting [1] was 12.6 µM [falling, partial curve, poor fit].

Take `Cc1ccc2nc(NC(=O)c3ccc(Cn4cc(Cl)cn4)o3)sc2c1`: under setting [1], the AC50 was 1.46 µM [falling, full curve, poor fit].

Consider `CCOC(=O)CSc1nnc(NC(=O)c2cccc([N+](=O)[O-])c2C)s1`, for which the AC50 under setting [1] is 1.84 µM [falling, full curve].

For `COc1c(C(=O)NC(=S)Nc2nnn(C)n2)cc2ccccc2c1Br`, the half-maximal activity concentration (AC50) under setting [1] was 35.5 µM [falling, single point].

Regarding `Cc1cc(C(=O)N/N=C/c2ccc(OCc3ccccc3)cc2)c(C)o1`, the AC50 under setting [1] was 11.2 µM [falling, partial curve, poor fit].

In the case of `CCn1c(=O)c(CCC(=O)N2CCOCC2)c(C)c2c(C)nn(-c3ccccc3)c21`, the half-maximal activity concentration (AC50) under setting [1] was 35.5 µM [falling, single point].

Take `CCSc1nc2sccc2c(=O)n1-c1ccccc1`: the AC50 under setting [1] was 11.2 µM [rising, partial curve, poor fit].

Turning to `N#CCSc1nnc(-c2sc3ccccc3c2Cl)o1`, the AC50 under setting [1] is 20.6 µM [falling, single point].

Take `O=c1ccnc(S/C=C/c2ccccc2)[nH]1`: the AC50 under setting [1] was 6.31 µM [falling, full curve].

Turning to `Cc1nn(C)c(C)c1CS(=O)(=O)c1ccccc1`, the AC50 under setting [1] is 2.82 µM [rising, partial curve, poor fit].

In the case of `COc1ccccc1N(CC(=O)NC1CCCC1)S(=O)(=O)c1cccc(C(F)(F)F)c1`, the AC50 under setting [1] is 29.1 µM [falling, partial curve, poor fit].

Regarding `Cc1ccc(C(=O)OCC(=O)NC(=O)c2cccn2C)cc1`, under setting [1], the half-maximal activity concentration (AC50) is 14.6 µM [rising, single point].

On to `CCn1cc(C(=O)NCCc2ccc(Cl)cc2)c(=O)c2cc(S(=O)(=O)N(C)C)ccc21`, for which the half-maximal activity concentration (AC50) under setting [1] was 22.4 µM [rising, single point].

`S=C(NCCC(c1ccccc1)c1ccccc1)Nc1cccc(Cl)c1`: the AC50 was 35.5 µM [falling, single point] under setting [1] and 17.8 µM [rising, partial curve, poor fit] under setting [2].

Take `Cc1c(NS(=O)(=O)c2cccc([N+](=O)[O-])c2)c(=O)n(-c2ccccc2)n1C`: under setting [1], the AC50 is 35.5 µM [rising, partial curve, poor fit].

For the compound `CCOc1ccc2nc(SCC#N)c(C#N)cc2c1`, under setting [1], the AC50 is 23.1 µM [rising, partial curve].

`c1ccc2oc(SCc3cn4ccsc4n3)nc2c1`: under setting [1], the AC50 was 12.6 µM [falling, single point].

Consider `CCOC1=C/C(=C/c2c(N)n3nc(-c4ccccc4)sc3nc2=O)C=CC1=O`, for which the AC50 under setting [1] is 10 µM [falling, partial curve, poor fit].

Regarding `O=C(c1ccc(C#Cc2ccccc2)o1)N1CCN(c2ccccn2)CC1`, the AC50 under setting [1] is 1.12 µM [rising, full curve, poor fit].

`Cc1cc2ccccc2n1CCNC(=O)Cc1cccc2ccccc12`: the AC50 under setting [1] was 14.6 µM [falling, partial curve].

As a reminder, the AC50 is the concentration at which the activity in the assay is half-maximal.
